Measured values published in article PMC4927293.
Results are given in words; binding and its absence hold for the method and conditions named. Some binding calls cover weakened binding; strength is not graded here.

Amino acid sequences for entries named in this document (tags omitted). A change or cut given only in a name is not applied to a line headed by its entry.
UniProt P31539: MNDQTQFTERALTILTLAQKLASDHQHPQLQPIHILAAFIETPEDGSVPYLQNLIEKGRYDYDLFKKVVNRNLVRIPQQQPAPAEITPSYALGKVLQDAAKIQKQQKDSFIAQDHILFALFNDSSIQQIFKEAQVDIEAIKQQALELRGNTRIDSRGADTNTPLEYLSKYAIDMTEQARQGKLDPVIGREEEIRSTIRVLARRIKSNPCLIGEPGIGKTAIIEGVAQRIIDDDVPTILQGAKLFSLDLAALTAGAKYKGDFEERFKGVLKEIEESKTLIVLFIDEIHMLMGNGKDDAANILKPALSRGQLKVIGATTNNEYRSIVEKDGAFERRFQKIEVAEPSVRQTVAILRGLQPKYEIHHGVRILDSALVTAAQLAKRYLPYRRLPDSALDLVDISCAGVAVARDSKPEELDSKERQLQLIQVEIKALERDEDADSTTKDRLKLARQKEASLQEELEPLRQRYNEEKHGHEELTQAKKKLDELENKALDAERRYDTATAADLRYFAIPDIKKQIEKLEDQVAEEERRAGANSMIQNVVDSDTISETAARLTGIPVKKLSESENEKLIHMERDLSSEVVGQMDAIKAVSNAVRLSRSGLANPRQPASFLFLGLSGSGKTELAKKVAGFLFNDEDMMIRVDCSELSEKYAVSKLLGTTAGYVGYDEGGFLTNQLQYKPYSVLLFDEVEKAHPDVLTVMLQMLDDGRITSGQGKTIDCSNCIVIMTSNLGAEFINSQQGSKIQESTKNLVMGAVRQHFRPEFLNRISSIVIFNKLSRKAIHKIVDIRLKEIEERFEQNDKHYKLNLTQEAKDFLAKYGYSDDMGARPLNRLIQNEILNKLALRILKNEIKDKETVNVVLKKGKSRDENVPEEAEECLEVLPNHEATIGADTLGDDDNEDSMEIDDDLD
UniProt P10591: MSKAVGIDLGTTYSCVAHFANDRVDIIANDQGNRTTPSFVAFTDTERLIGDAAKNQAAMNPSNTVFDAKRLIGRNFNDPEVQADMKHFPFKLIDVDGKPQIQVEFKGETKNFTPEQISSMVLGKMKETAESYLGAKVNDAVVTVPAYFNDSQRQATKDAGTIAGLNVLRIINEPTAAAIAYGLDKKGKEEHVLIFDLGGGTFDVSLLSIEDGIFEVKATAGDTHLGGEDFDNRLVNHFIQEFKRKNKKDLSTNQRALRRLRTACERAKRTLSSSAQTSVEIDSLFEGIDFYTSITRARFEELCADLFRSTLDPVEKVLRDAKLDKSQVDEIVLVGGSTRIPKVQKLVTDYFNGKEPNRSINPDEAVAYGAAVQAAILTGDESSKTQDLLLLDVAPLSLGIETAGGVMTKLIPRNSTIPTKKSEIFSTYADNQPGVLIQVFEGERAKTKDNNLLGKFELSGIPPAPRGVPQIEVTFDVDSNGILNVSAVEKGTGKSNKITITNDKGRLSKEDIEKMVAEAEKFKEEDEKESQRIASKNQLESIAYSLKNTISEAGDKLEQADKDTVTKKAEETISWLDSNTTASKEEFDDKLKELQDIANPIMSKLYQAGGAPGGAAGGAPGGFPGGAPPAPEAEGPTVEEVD

Legend:
[1] = molecular target: T1, fluorescein-labelled reduced carboxymethylated lactalbumine (fRCMLa) (UniProt P00711); assay: fluorescence polarisation; fluorescence anisotropy; Ssa1 (2 uM) and Ydj1 (0.5 uM) injected together to fRCMLa (5 uM by the legend, 1 uM by the methods) at 2.6 mM ATP, 30 °C, renaturation buffer; both purified
T1 sequence (chain, reduced carboxymethylated; labeled with fluorescein (site not stated)): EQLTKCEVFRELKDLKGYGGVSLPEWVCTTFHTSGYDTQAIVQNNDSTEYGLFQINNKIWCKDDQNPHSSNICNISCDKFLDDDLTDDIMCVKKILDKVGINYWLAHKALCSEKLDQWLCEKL

[2] = molecular target: T1, fluorescein-labelled reduced carboxymethylated lactalbumine (fRCMLa); assay: fluorescence polarisation; fluorescence anisotropy; Hsp104 E285Q (12 uM) injected to fRCMLa (1 uM) at 2.6 mM ATP without ADP, 30 °C, renaturation buffer (40 mM HEPES pH 7.5, 60 mM potassium glutamate, 15 mM magnesium acetate, 5 mM DTT); after 200 s non-labeled RCMLa added to 40 uM; both purified
[3] = molecular target: Hsp104 E285Q (S. cerevisiae) (UniProt P31539); assay: as above

Hsp70 (Ssa1) (from UniProt P10591 1-642)
binding [1]: binds

Hsp104 E285Q (from UniProt P31539 1-908) (enzyme)
binding [2]: binds

B1: reduced carboxymethylated lactalbumine (RCMLa), non-labelled (protein, UniProt P00711 20-142)
chain: EQLTKCEVFRELKDLKGYGGVSLPEWVCTTFHTSGYDTQAIVQNNDSTEYGLFQINNKIWCKDDQNPHSSNICNISCDKFLDDDLTDDIMCVKKILDKVGINYWLAHKALCSEKLDQWLCEKL
modifications: reduced carboxymethylated
binding [3]: binds
